The other results are listed elsewhere or left out. Most values lie at the level of the controls, where differences are scatter.

Chains of the proteins cited; added tags and fusions are not shown. Lines headed by an entry give the natural chain unless they say otherwise; changes in a name come on top.
UniProt P22102: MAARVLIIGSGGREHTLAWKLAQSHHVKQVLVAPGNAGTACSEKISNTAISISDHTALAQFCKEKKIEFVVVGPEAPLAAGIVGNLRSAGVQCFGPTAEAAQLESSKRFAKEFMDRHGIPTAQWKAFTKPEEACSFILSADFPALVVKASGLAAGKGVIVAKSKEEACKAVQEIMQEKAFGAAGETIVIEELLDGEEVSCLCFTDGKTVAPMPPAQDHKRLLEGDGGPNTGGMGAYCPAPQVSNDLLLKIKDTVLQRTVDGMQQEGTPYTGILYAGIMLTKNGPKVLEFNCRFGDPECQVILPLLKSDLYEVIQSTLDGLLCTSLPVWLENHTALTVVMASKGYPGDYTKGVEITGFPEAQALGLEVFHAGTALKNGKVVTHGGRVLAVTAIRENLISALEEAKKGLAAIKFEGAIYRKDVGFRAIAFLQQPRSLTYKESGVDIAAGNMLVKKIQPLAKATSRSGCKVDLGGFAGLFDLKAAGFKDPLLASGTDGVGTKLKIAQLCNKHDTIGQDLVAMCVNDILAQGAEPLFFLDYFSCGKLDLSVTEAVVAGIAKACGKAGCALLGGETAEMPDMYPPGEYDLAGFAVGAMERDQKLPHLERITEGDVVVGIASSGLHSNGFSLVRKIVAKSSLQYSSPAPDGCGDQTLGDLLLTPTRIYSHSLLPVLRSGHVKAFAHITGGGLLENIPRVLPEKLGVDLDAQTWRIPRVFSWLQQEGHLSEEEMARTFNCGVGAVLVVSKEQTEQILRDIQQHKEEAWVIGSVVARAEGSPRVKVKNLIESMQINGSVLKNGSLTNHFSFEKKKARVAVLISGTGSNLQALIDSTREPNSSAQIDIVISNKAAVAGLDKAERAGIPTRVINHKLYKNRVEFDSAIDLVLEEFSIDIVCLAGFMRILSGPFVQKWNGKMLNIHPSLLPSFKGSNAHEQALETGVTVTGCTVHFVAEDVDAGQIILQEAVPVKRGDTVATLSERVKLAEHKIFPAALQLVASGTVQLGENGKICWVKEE
UniProt P16278: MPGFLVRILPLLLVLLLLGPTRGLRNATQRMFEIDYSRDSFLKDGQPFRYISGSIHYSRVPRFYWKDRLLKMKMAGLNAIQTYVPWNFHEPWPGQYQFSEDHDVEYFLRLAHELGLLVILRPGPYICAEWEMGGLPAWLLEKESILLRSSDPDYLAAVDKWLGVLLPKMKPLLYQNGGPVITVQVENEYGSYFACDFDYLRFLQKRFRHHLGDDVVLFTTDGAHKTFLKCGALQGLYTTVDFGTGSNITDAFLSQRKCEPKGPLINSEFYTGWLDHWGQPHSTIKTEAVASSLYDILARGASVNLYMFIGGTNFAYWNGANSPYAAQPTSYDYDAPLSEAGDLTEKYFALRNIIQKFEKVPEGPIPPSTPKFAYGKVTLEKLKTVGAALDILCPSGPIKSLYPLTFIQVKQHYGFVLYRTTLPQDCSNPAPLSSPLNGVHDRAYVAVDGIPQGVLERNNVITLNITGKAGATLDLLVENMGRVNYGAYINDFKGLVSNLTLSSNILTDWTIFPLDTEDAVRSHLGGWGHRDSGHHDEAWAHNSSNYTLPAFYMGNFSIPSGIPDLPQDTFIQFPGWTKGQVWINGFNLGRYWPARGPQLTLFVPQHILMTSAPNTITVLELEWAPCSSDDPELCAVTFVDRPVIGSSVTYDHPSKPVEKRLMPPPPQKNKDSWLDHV
UniProt P20248, whole entry: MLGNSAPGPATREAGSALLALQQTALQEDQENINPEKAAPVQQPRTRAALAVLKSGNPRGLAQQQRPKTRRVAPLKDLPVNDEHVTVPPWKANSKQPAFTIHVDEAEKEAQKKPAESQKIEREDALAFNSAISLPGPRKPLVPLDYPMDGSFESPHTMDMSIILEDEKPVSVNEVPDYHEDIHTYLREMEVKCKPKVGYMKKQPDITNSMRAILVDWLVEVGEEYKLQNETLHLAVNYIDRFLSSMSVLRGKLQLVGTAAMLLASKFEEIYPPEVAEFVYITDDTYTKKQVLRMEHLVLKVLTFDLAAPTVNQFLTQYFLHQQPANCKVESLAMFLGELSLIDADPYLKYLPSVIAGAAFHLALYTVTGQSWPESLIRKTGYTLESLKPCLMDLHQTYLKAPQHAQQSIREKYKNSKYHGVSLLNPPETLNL
UniProt P17980, whole entry: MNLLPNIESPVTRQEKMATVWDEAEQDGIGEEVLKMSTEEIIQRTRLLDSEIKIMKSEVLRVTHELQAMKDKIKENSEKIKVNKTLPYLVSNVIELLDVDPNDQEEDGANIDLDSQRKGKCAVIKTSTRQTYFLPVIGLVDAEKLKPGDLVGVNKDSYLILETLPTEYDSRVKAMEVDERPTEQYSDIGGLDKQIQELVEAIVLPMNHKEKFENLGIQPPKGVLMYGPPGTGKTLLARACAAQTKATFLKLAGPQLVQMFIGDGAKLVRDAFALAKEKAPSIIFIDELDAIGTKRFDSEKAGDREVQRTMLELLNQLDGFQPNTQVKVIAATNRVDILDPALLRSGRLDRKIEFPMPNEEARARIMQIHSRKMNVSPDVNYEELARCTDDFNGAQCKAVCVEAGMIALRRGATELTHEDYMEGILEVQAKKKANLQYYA
UniProt P21580: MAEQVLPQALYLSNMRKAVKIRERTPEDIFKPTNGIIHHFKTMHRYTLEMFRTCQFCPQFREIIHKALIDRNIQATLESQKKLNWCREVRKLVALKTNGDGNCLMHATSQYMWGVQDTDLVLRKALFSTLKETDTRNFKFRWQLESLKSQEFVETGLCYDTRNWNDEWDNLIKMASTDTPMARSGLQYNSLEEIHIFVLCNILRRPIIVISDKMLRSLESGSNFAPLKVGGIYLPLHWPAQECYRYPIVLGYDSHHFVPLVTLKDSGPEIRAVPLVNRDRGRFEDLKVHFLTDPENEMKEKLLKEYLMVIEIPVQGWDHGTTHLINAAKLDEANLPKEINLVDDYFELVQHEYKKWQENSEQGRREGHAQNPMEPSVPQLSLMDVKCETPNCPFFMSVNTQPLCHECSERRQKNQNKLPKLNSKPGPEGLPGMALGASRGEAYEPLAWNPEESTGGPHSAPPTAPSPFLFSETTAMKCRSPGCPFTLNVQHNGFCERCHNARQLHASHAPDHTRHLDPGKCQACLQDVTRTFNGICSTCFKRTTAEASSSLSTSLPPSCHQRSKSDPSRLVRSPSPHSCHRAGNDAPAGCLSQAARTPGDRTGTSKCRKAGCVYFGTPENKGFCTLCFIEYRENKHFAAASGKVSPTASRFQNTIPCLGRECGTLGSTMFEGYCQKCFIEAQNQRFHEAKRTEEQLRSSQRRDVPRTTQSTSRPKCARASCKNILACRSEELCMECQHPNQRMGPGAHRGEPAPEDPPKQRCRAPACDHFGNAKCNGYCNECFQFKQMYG
UniProt P22570: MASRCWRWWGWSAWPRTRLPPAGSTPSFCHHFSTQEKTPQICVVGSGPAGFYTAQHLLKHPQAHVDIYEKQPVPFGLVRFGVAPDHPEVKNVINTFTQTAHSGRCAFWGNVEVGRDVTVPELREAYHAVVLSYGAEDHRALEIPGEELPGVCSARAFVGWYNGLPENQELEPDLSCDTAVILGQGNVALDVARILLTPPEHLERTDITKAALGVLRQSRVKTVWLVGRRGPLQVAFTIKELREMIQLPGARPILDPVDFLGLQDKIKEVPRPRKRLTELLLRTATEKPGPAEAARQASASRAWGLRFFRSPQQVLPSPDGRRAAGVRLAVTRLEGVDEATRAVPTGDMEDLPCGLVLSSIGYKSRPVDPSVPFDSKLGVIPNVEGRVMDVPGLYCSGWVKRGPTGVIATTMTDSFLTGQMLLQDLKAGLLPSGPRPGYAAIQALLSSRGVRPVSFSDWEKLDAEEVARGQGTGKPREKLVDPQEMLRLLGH
UniProt P20674, whole entry: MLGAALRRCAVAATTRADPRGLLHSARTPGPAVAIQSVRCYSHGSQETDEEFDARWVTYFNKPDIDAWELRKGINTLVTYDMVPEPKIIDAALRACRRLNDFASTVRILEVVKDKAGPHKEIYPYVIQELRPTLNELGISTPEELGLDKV
UniProt P28065: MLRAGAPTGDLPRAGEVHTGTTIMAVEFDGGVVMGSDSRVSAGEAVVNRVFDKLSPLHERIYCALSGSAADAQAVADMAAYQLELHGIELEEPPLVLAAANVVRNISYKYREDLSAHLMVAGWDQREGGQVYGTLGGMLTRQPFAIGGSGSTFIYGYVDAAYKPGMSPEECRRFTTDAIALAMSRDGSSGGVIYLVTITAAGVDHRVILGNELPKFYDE
UniProt P14923: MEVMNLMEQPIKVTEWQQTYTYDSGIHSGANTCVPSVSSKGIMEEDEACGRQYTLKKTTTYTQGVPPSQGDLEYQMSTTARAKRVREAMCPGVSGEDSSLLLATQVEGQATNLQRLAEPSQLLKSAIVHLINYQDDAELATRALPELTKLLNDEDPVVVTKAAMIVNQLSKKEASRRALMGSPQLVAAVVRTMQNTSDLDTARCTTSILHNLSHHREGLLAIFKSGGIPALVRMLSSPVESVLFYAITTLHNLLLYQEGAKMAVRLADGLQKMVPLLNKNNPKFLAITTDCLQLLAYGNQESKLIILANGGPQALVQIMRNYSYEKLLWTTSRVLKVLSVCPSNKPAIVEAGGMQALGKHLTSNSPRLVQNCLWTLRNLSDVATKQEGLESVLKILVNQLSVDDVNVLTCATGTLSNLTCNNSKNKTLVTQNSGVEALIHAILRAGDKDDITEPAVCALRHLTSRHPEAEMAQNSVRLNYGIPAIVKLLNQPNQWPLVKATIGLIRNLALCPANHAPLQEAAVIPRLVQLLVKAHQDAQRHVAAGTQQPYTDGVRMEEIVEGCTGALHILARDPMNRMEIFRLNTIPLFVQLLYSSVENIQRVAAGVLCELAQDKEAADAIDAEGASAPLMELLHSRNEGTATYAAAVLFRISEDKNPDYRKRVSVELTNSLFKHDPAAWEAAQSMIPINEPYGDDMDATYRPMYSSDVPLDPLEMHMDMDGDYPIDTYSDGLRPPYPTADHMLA
UniProt P18846: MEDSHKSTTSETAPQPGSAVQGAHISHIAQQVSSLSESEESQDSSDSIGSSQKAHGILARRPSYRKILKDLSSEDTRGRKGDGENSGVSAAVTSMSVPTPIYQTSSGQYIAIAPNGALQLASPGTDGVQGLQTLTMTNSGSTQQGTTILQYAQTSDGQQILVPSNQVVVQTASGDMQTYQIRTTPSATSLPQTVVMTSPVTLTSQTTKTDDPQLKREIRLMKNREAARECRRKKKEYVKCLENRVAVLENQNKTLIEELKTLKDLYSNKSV
UniProt P17096: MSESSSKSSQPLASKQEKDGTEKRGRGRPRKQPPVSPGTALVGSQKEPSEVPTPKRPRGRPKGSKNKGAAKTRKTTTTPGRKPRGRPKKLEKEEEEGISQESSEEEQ
UniProt P25963: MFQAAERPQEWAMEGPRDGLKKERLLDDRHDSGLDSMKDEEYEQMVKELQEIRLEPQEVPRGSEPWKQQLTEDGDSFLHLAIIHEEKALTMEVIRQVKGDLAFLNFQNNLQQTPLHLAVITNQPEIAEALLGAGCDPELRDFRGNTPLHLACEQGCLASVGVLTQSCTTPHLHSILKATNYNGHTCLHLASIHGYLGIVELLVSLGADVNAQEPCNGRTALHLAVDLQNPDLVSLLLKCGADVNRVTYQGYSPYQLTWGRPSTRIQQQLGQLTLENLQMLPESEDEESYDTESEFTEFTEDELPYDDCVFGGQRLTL
UniProt P15407: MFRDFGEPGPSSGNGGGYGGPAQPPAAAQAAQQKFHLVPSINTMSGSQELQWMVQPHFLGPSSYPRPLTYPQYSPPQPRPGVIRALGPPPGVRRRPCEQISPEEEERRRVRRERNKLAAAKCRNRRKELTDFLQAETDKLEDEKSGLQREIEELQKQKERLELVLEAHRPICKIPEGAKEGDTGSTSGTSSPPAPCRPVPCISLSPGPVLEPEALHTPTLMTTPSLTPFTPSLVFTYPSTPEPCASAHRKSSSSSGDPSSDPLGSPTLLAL
UniProt P14921: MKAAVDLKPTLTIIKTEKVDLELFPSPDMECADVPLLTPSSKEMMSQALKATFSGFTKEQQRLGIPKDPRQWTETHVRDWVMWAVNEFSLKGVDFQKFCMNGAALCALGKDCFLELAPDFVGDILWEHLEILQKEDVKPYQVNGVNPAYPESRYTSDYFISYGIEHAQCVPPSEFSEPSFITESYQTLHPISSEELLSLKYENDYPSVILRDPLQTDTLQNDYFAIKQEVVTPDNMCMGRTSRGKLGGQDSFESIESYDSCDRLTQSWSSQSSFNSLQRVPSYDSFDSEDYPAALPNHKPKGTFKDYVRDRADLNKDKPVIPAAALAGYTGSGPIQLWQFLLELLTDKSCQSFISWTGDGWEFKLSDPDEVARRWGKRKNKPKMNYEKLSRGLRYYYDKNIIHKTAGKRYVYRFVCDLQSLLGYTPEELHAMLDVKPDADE

Compound in this assay: Cc1nc(Nc2ncc(C(=O)Nc3c(C)cccc3Cl)s2)cc(N2CCN(CCO)CC2)n1 [dasatinib]
The assay is described as follows: log2 fold change of tryptic peptide abundance, ligand vs vehicle (limited proteolysis) (log2 ratio); higher = more trypsin-susceptible (destabilized). The note with it: ligand concentration: 5 uM; sample: K562 cleared lysate.
Regarding “POLD1 (peptide sequence: RFGPPGPEAW, peptide start residue: 1098) (UniProt P28340)”, the log2 fold change was found to be 0.14.
“TAF1 (peptide sequence: RVGTTVHCDYLNRPHK, peptide start residue: 1357) (UniProt P21675)”: the log2 fold change is -0.396.
Turning to “GART (peptide sequence: TVAPMPPAQDHK, peptide start residue: 208) (UniProt P22102)”, the log2 fold change was 0.207.
“GLB1 (peptide sequence: NKDSWLDHV, peptide start residue: 669) (UniProt P16278)”: the log2 fold change is -0.348.
For “OSBP (peptide sequence: VQPVIGENGGDAR, peptide start residue: 655) (UniProt P22059)”, the log2 fold change is -0.262.
Regarding “CCNA2 (peptide sequence: MLGNSAPGPATR, peptide start residue: 1) (UniProt P20248)”, the log2 fold change turned out to be 0.14.
With “PTPN1 (peptide sequence: ELSHEDLEPPPEHIPPPPRPPKR, peptide start residue: 293) (UniProt P18031)”, the log2 fold change is -0.825.
Consider “PSMC3 (peptide sequence: LKPGDLVGVNK, peptide start residue: 145) (UniProt P17980)”, for which the log2 fold change is -0.263.
For the target “PFKFB1 (peptide sequence: IGGDSGLSVR, peptide start residue: 268) (UniProt P16118)”, the log2 fold change was determined as 0.58.
Take “TNFAIP3 (peptide sequence: CRAPACDHFGNAK, peptide start residue: 762) (UniProt P21580)”: the log2 fold change was -0.371.
“RPS3 (peptide sequence: GCEVVVSGKLRGQR, peptide start residue: 133) (UniProt P23396)”: the log2 fold change was determined as 1.02.
The result for “FDXR (peptide sequence: CAFWGNVEVGR, peptide start residue: 105) (UniProt P22570)” reads 0.114; that for “COX5A (peptide sequence: RLNDFASTVR, peptide start residue: 98) (UniProt P20674)”, -0.181.
Under “PSMB9 (peptide sequence: AGAPTGDLPR, peptide start residue: 4) (UniProt P28065)” stands -0.0493; under “PHKG2 (peptide sequence: NALLRDPYALR, peptide start residue: 334) (UniProt P15735)”, -0.135.
Regarding “ANK1 (peptide sequence: VAELLLERDAHPNAAGK, peptide start residue: 551) (UniProt P16157)”, the log2 fold change was determined as 0.355.
Under “JUP (peptide sequence: QEGLESVLK, peptide start residue: 386) (UniProt P14923)” stands -0.393; under “UniProt P23443 (peptide sequence: HINWEELLAR, peptide start residue: 354)”, -0.207.
The result for “ATF1 (peptide sequence: TLKDLYSNK, peptide start residue: 261) (UniProt P18846)” reads 0.138.
Take “HMGA1 (peptide sequence: EPSEVPTPK, peptide start residue: 47) (UniProt P17096)”: the log2 fold change turned out to be 0.196.
On to “RFX1 (peptide sequence: VAAAGAFAQTLR, peptide start residue: 738) (UniProt P22670)”, for which the log2 fold change is -0.234.
On to “NFKBIA (peptide sequence: HDSGLDSMKDEEYEQMVK, peptide start residue: 30) (UniProt P25963)”, for which the log2 fold change was found to be 0.571.
Consider “UniProt P15622 (peptide sequence: IDQENNETK, peptide start residue: 154)”, for which the log2 fold change is -0.278.
For “EIF4B (peptide sequence: DGKKDQDSR, peptide start residue: 563) (UniProt P23588)”, the log2 fold change was -0.644.
Regarding “CALB2 (peptide sequence: LLPVQENFLLK, peptide start residue: 170) (UniProt P22676)”, the log2 fold change is 0.213.
Regarding “DCK (peptide sequence: LKDAEKPVLFFER, peptide start residue: 116) (UniProt P27707)”, the log2 fold change is -0.0721.
Consider “FOSL1 (peptide sequence: ALGPPPGVR, peptide start residue: 85) (UniProt P15407)”, for which the log2 fold change is 0.0213.
Consider “ETS1 (peptide sequence: VPSYDSFDSEDYPAALPNHKPK, peptide start residue: 280) (UniProt P14921)”, for which the log2 fold change was -0.29.

Values taken from the supplement of paper PMC12819154, “High-throughput peptide-centric local stability assay extends protein–ligand identification to membrane proteins, tissues and bacteria” (Nature Structural & Molecular Biology, 2025).
